# These are yes or no findings as the source states them, for the method shown. Some entries that bind do so weakly or less than the wild type.
# Protein sequences, listed by entry. Tags and fused reporters are not part of them. Residues count along the entry.
# UniProt P05231, residues 30-212: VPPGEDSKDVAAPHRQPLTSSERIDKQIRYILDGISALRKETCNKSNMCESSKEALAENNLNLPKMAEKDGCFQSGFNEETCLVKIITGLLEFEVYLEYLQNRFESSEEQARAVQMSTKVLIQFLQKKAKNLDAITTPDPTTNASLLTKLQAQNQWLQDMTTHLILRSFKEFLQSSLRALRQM
# B1: ILB503 (peptide)
# peptide: LAWKQSWIDTGQAGQGSATGGSGSTASSGSGSSFNEDCMWDPLLMDCAYSP
# B2: ILB512 (peptide)
# peptide: MWSAVFQPYQGQAGQGSATGGSSFNEDCMWDPLLMDCAYSPGGSFNEDCMWDPLLMDCAYSP
# B3: ILB520 (peptide)
# peptide: YCPFMPALCVGQAGQGSATGGSGSTASSGSGSSFNEDCMWDPLLMDCAYSP
# Target: IL6 (UniProt P05231)
# Experiment: MRD identification, Example 48
row,binding,Binder
1,binds,VMLEQMPMMRGQAGQGSATGGSSFNEDCMWDPLLMDCAYSP [ILB504]
2,binds,EIFWWLLQWEGQAGQGSATGGSSFNEDCMWDPLLMDCAYSP [ILB523]
3,binds,QHQTAFTEMVGQAGQGSFNEDCMWDPLLMDCAYSP [ILB517]
4,binds,B1
5,binds,ISDVYQWHSYGQAGQGSFNEDCMWDPLLMDCAYSP [ILB508]
6,binds,ATRMWPMSISGQAGQGSATGGSSFNEDCMWDPLLMDCAYSP [ILB505]
7,binds,DRWGWQKEPSGQAGQGSFNEDCMWDPLLMDCAYSP [ILB502]
8,binds,QIDFKYMMWTGQAGQGSATGGSSFNEDCMWDPLLMDCAYSP [ILB524]
9,binds,MVKLWEIYSWGQAGQGSFNEDCMWDPLLMDCAYSP [ILB509]
10,binds,QWGWSMWQEVGQAGQGSFNEDCMWDPLLMDCAYSP [ILB511]
11,binds,AMHNVMWRAMGQAGQGSFNEDCMWDPLLMDCAYSP [ILB513]
12,binds,B2
13,binds,QMQWLDDEFYGQAGQGSATGGSSFNEDCMWDPLLMDCAYSP [ILB525]
14,binds,QTMWTRWMHDGQAGQGSFNEDCMWDPLLMDCAYSP [ILB518]
15,binds,PVQQEWMQWYGQAGQGSFNEDCMWDPLLMDCAYSP [ILB526]
16,binds,HEDKFIVWMWGQAGQGSATGGSSFNEDCMWDPLLMDCAYSP [ILB514]
17,binds,YAWHHHVLNTGQAGQGSFNEDCMWDPLLMDCAYSP [ILB519]
18,binds,RTYSTPYWGWGQAGQGSFNEDCMWDPLLMDCAYSP [ILB522]
19,binds,B3
20,binds,MYVMKWQNWTGQAGQGSFNEDCMWDPLLMDCAYSP [ILB506]
21,binds,QWWWTNSPWLGQAGQGSATGGSSFNEDCMWDPLLMDCAYSP [ILB516]
22,binds,QAWKLMWFAWGQAGQGSATGGSSFNEDCMWDPLLMDCAYSP [ILB527]

# — patent publication US20160046678A1 (ZYNGENIA, published 2016)
